The experiment concerns the target S. pombe Lsm3 (S. pombe) (UniProt Q9Y7M4). The experiment is described as follows: co-purification (affinity and anion-exchange chromatography, chains confirmed by electrospray mass spectrometry); wild-type Lsm1–7 coexpressed in E. coli; IMAC, glutathione agarose (GST on Lsm3), TEV protease, HiTrapQ.

Sequences of proteins named here, by UniProt entry; tags and fusion partners are left off.
UniProt Q9Y7M4: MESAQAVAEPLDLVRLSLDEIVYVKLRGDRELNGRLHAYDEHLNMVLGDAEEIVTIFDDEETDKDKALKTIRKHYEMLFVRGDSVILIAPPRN

Results are given in words; binding and its absence hold for the method and conditions named. In cells and extracts the contact can be indirect. Here binding means that the protein was enriched with, or labelled near, the bait; the list need not be complete.

B1: S. pombe Lsm4 (protein, UniProt O14352 1-121)
chain: MLPLTLLNATQGRPILVELKNGETFNGHLENCDNYMNLTLREVIRTMPDGDKFFRLPECYIRGNNIKYLRIQDEVLSQVAKQQAQQRENRGSRFRGRGQRGRGNYGHTAPNRRGRGRGGHM
For B1, the binding result is on record as “binds”.

B2: S. pombe Lsm1 (protein, UniProt P87173 1-140)
chain: MNQATQIIPFTTSGSLVDYVDRKVIVVLRDGKKLIGILRSFDQFANLMLQYTIERIYVDDMYGDIDRGVYIVRGENVVLLGELDLDKEYDAVKQLRRMPAEELYPLAKLHEEEKKKNIREKGKYLHSVGFSVDGGHDDLY
Take B2: the binding entry is reported as “binds”.
